According to the supplement of paper PMC10849652:
The list shows a part of the results.

Sequences of proteins named here, by UniProt entry; tags and fusion partners are left off. A change or cut given only in a name is not applied to a line headed by its entry.
UniProt Q8NC60: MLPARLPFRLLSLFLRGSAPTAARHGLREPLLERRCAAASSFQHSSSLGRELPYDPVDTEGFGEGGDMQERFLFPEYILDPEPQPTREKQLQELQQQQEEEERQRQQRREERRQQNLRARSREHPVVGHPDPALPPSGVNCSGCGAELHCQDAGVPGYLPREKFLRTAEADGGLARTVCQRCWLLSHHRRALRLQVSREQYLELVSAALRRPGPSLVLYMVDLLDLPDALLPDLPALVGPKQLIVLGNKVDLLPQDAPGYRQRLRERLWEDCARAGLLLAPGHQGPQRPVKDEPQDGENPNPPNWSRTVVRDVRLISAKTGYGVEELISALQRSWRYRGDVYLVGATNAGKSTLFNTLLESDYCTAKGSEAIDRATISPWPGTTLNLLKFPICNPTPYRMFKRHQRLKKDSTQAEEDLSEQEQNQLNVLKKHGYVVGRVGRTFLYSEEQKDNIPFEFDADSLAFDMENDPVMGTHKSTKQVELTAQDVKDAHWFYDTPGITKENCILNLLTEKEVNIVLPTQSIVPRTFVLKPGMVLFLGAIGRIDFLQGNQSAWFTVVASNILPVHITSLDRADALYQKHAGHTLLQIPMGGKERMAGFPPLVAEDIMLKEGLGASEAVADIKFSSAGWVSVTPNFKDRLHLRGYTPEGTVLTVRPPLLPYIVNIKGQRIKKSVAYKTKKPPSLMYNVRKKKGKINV
UniProt Q9BXD5: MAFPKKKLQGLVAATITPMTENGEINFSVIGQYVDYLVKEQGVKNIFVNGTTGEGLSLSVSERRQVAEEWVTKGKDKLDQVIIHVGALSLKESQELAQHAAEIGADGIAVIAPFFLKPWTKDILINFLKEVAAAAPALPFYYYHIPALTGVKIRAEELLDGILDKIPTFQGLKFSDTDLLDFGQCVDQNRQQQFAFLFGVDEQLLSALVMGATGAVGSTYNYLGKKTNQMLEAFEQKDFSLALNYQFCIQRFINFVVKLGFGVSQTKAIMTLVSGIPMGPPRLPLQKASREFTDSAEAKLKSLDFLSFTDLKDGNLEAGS
UniProt Q6ZNB6: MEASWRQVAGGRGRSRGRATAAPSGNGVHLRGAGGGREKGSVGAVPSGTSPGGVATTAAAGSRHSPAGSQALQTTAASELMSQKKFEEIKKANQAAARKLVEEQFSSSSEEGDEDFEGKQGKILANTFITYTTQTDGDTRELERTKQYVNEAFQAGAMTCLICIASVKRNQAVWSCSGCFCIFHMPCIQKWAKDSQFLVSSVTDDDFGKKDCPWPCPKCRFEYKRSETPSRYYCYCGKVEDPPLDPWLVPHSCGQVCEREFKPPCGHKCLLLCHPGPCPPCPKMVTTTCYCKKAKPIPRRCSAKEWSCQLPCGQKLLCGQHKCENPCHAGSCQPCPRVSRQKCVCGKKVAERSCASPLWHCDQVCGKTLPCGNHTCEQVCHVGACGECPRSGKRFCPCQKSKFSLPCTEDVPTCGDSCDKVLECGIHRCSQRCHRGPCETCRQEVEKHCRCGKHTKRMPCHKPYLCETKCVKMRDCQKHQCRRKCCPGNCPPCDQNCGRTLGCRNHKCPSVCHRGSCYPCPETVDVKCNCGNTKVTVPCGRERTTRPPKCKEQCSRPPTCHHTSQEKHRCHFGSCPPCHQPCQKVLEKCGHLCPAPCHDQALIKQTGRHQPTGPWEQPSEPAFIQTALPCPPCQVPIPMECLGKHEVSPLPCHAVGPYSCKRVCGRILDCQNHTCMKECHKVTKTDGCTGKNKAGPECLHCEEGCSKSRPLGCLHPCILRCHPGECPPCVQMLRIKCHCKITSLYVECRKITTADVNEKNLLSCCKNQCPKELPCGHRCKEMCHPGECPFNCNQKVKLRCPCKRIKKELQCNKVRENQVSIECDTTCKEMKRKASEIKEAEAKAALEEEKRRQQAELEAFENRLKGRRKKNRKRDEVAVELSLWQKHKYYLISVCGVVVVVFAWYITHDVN
UniProt P15531, whole entry, looked up: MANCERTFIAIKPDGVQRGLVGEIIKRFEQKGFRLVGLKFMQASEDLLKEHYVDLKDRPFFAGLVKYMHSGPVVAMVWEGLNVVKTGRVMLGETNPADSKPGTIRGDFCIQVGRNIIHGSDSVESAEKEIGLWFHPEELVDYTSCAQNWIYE
UniProt Q13469: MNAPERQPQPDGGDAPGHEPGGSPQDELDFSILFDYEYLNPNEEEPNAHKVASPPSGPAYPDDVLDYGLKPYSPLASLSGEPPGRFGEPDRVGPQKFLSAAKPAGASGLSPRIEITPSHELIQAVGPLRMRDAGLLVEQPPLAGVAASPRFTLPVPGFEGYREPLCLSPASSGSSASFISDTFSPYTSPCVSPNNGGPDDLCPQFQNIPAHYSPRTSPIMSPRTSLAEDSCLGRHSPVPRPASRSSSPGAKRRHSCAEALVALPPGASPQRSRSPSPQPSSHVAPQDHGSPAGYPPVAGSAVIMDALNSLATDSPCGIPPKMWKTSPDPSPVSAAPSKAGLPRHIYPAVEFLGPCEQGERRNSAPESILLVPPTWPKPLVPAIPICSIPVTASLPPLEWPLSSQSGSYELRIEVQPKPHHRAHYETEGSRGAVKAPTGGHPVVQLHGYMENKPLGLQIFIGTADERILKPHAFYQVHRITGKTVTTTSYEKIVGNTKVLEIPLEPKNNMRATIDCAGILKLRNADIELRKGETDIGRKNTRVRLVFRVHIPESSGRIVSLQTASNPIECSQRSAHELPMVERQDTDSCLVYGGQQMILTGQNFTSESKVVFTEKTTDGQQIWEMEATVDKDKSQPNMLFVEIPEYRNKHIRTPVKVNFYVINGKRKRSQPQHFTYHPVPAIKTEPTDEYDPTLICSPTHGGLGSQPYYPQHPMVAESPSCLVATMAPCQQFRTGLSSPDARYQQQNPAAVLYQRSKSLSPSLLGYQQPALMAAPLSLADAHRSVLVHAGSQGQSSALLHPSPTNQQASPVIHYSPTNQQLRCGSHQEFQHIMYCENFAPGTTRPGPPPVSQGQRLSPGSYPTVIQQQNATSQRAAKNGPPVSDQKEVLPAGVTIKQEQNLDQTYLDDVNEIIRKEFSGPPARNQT
UniProt Q8TAT6: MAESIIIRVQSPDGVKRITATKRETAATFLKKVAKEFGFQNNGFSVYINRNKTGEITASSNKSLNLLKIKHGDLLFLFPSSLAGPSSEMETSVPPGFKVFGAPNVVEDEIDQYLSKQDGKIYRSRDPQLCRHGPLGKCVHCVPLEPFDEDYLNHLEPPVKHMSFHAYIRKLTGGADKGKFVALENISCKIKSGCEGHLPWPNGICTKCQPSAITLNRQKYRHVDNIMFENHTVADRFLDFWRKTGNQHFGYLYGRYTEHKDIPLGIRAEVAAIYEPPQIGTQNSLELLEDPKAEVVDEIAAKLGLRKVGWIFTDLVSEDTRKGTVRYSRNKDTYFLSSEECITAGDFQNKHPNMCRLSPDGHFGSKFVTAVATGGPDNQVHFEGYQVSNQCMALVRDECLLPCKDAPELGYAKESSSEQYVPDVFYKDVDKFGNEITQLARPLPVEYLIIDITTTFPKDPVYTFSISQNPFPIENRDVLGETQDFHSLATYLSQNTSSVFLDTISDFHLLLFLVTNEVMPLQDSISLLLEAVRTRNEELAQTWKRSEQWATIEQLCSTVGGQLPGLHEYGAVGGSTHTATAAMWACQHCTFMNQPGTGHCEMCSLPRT
UniProt Q9GZT8: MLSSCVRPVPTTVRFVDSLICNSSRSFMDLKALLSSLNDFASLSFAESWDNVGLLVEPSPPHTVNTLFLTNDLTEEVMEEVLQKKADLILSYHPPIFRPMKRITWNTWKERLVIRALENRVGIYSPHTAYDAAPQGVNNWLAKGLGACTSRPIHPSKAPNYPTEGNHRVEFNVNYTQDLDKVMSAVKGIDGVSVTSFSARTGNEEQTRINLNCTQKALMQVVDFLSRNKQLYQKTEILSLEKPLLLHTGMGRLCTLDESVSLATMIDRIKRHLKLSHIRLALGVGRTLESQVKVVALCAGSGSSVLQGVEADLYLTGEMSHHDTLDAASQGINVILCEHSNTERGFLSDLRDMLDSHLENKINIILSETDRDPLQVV
UniProt Q96TA1: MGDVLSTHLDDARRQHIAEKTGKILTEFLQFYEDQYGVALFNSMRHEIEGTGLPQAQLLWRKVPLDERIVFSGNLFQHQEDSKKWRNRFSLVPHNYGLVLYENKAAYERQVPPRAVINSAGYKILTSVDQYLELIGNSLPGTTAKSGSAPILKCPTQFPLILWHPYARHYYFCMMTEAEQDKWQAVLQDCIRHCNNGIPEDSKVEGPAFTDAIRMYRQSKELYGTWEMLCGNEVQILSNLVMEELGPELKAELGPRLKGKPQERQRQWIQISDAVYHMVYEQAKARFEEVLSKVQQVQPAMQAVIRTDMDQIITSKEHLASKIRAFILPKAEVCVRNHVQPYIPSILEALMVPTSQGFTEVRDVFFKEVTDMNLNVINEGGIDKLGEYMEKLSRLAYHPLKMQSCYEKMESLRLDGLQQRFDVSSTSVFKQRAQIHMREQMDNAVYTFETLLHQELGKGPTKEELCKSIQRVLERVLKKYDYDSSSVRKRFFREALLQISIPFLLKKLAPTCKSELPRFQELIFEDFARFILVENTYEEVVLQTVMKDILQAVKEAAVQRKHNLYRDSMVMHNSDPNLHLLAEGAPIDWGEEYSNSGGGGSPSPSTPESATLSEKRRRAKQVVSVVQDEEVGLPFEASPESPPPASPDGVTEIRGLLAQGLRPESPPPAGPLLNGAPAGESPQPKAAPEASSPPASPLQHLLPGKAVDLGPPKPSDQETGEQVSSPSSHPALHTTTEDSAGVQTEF
UniProt P46459: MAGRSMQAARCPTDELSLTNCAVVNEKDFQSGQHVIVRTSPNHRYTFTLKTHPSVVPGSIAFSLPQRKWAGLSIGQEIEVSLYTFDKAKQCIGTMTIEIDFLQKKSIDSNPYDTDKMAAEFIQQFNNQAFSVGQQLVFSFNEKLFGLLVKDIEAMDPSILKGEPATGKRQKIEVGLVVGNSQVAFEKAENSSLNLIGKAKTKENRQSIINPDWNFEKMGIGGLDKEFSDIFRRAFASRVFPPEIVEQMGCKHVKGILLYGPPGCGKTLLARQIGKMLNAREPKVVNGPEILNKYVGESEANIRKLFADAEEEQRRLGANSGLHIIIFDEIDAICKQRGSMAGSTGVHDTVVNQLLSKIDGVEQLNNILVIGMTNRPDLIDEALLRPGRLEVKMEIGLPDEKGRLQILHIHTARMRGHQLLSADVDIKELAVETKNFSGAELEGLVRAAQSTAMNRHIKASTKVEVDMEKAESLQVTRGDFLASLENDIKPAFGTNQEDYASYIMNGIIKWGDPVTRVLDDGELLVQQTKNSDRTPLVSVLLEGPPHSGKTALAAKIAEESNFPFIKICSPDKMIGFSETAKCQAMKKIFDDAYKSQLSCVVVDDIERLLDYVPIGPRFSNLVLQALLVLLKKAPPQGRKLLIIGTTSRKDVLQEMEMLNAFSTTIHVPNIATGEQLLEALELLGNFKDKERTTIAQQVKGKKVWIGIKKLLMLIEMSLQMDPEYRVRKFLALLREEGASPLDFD
UniProt O00221: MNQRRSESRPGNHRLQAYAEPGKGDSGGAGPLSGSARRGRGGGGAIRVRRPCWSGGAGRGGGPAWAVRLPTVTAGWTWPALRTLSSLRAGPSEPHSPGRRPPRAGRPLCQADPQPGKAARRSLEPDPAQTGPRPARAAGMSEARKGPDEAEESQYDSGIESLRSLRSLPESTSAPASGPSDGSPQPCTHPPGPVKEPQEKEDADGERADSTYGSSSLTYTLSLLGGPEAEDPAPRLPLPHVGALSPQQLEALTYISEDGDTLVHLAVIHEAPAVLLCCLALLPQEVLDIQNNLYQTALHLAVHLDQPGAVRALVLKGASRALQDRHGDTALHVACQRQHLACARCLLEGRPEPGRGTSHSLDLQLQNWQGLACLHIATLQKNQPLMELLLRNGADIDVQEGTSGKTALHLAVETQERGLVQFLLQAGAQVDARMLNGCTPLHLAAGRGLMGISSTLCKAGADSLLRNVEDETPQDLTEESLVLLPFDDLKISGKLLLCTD
UniProt Q16656: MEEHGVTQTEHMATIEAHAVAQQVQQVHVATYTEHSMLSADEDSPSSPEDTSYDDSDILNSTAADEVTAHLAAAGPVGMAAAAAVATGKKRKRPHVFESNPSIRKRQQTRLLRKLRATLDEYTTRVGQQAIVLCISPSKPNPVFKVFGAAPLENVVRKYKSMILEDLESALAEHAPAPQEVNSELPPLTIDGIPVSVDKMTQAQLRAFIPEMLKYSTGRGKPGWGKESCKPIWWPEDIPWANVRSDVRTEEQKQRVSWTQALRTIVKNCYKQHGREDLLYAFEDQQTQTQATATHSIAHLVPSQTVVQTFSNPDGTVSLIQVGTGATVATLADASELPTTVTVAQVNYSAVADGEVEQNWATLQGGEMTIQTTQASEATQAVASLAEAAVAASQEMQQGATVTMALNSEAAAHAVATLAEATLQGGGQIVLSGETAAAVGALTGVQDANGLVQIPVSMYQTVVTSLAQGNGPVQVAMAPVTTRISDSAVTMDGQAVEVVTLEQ

Tests used:
Assay in all cases: log2 fold change, soluble protein after heating vs DMSO (PISA); higher = thermal stabilisation; K562 cells, 10 uM, 30 min; active = over 0.2 and 3.5 SD of the protein, either way, in both replicates (recomputed)
[1] = compound: NC(=O)Nc1cc(-c2cccc(F)c2)sc1C(=O)N[C@H]1CCCNC1
Outline: (§1)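 For each measurement, 10 μM compound was applied for 30 min to K562 cells at 2×10^6 cells/mL. Aliquots were heated for 3 min across 48°C-58°C, pooled, and extracted in PBS with 0.5% NP-40 at 4°C; the supernatant after 21,000xg for 90 min was soluble protein. This was quantified by TMTpro 16plex LC-MS/MS with channel sums equalised, and thermal stability was reported relative to control samples from duplicates, on a log2 fold-change scale.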

[2] = compound: NC(=O)c1cnc(N[C@@H]2CCCC[C@@H]2N)nc1Nc1cccc(-n2nccn2)c1
Outline: as §1

[3] = compound: NC1(c2ccc(-c3nc4ccn5c(=O)[nH]nc5c4cc3-c3ccccc3)cc2)CCC1
Outline: as §1

[4] = compound: NCC(=O)Nc1ccc(-n2nc(C(F)(F)F)cc2-c2ccc3c(ccc4ccccc43)c2)cc1
Outline: as §1

entinostat = compound: Nc1ccccc1NC(=O)c1ccc(CNC(=O)OCc2cccnc2)cc1 [entinostat]
Outline: as §1

vorinostat = compound: O=C(CCCCCCC(=O)Nc1ccccc1)NO [vorinostat]
Outline: as §1

citarinostat = compound: O=C(CCCCCCNC(=O)c1cnc(N(c2ccccc2)c2ccccc2Cl)nc1)NO [citarinostat]
Outline: as §1

silmitasertib = compound: O=C(O)c1ccc2c(c1)nc(Nc1cccc(Cl)c1)c1ccncc12 [silmitasertib]
Outline: as §1

[5] = compound: O=C1NC(=O)C(c2cnc3ccccn23)=C1c1cn2c3c(cc(F)cc13)CN(C(=O)N1CCCCC1)CC2
Outline: as §1

[6] = compound: c1cc(OCCN2CCCCC2)cc(-c2n[nH]c3ccc(-c4nnc[nH]4)cc23)c1
Outline: as §1

Measured: log2 fold change

NEK7 (UniProt Q8TDX7)
inactive: [1] 0.008 | [2] -0.042 | [3] -0.069 | [4] -0.028 | entinostat -0.041 | vorinostat 0.067 | citarinostat 0.017 | silmitasertib 0.025 | [5] -0.027 | [6] -0.026

NOA1 (UniProt Q8NC60)
inactive: [1] -0.054 | [2] -0.17 | [3] 0.042 | [4] -0.159 | entinostat -0.07 | vorinostat 0.033 | citarinostat 0.065 | silmitasertib 0.022 | [5] 0.141 | [6] -0.082

NR2C2 isoform 2 (UniProt P49116)
inactive: [1] -0.056 | [2] -0.036 | [3] -0.211 | [4] -0.104 | entinostat -0.02 | vorinostat -0.116 | citarinostat -0.022 | silmitasertib 0.074 | [5] 0.03 | [6] -0.04

Two entries picked at random from the list so far:
NR2C2 isoform 2 (UniProt P49116)
inactive: [1] -0.056 | [2] -0.036 | [3] -0.211 | [4] -0.104 | entinostat -0.02 | vorinostat -0.116 | citarinostat -0.022 | silmitasertib 0.074 | [5] 0.03 | [6] -0.04

NEK7 (UniProt Q8TDX7)
inactive: [1] 0.008 | [2] -0.042 | [3] -0.069 | [4] -0.028 | entinostat -0.041 | vorinostat 0.067 | citarinostat 0.017 | silmitasertib 0.025 | [5] -0.027 | [6] -0.026

The listing continues:

NELFE isoform 3 (UniProt P18615)
inactive: [1] 0.117 | [2] -0.01 | [3] 0.002 | [4] -0.044 | entinostat 0.019 | vorinostat 0.053 | citarinostat 0.01 | silmitasertib 0.009 | [5] 0.043 | [6] -0.034

NLE1 (UniProt Q9NVX2)
inactive: [1] 0.046 | [2] -0.009 | [3] -0.004 | [4] -0.003 | entinostat 0.017 | vorinostat 0.019 | citarinostat 0.041 | silmitasertib 0.023 | [5] -0.031 | [6] -0.003

NPL (UniProt Q9BXD5)
inactive: [1] -0.111 | [2] 0.005 | [3] 0.001 | [4] -0.05 | entinostat -0.161 | vorinostat 0.018 | citarinostat -0.007 | silmitasertib 0.033 | [5] -0.071 | [6] -0.022

NOC2L (UniProt Q9Y3T9)
inactive: [1] -0.021 | [2] -0.154 | [3] 0.011 | [4] -0.171 | entinostat -0.005 | vorinostat 0.022 | citarinostat -0.058 | silmitasertib 0.032 | [5] -0.111 | [6] -0.059

NELFB isoform 2 (UniProt Q8WX92)
inactive: [1] -0.021 | [2] -0.016 | [3] -0.074 | [4] -0.107 | entinostat 0.062 | vorinostat 0.059 | citarinostat 0.102 | silmitasertib 0.021 | [5] -0.086 | [6] -0.001

NFXL1 (UniProt Q6ZNB6)
inactive: [1] -0.034 | [2] -0.038 | [3] 0.076 | [4] -0.087 | entinostat -0.005 | vorinostat -0.038 | citarinostat -0.005 | silmitasertib 0.046 | [5] -0.062 | [6] -0.001

NIPA2 (UniProt Q8N8Q9)
inactive: [1] -0.08 | [2] 0.005 | [3] -0.051 | [4] -0.058 | entinostat -0.031 | vorinostat -0.046 | citarinostat -0.048 | silmitasertib 0.122 | [5] -0.083 | [6] -0.146

NISCH (UniProt Q9Y2I1)
inactive: [1] -0.052 | [2] -0.293 | [3] -0.354 | [4] -0.168 | entinostat 0.101 | vorinostat 0.09 | citarinostat 0.023 | silmitasertib 0.065 | [5] 0.081 | [6] -0.147

NFKBIB (UniProt Q15653)
inactive: [1] -0.06 | [2] -0.087 | [3] -0.083 | [4] 0.017 | entinostat -0.002 | vorinostat 0.017 | citarinostat 0.061 | silmitasertib 0.054 | [5] -0.083 | [6] -0.038

NFYA (UniProt P23511)
inactive: [1] -0.263 | [2] -0.083 | [3] -0.016 | [4] 0.054 | entinostat -0.331 | vorinostat 0.057 | citarinostat -0.006 | silmitasertib -0.006 | [5] -0.048 | [6] -0.056

NFATC3 (UniProt Q12968)
inactive: [1] -0.15 | [2] -0.137 | [3] 0.034 | [4] 0.007 | entinostat 0.107 | vorinostat 0.045 | citarinostat -0.101 | silmitasertib 0.118 | [5] -0.267 | [6] -0.225

NME1 isoform 2 (UniProt P15531)
inactive: [1] 0.012 | [2] -0.017 | [3] -0.003 | [4] -0.003 | entinostat -0.064 | vorinostat 0.103 | citarinostat -0.089 | silmitasertib -0.138 | [5] -0.089 | [6] -0.253

NHEJ1 (UniProt Q9H9Q4)
inactive: [1] 0.025 | [2] 0.044 | [3] -0.195 | [4] -0.182 | entinostat 0.005 | vorinostat 0.196 | citarinostat 0.082 | silmitasertib 0.016 | [5] -0.03 | [6] 0.018

NFATC2 (UniProt Q13469)
inactive: [1] -0.076 | [2] -0.203 | [3] -0.064 | [4] -0.075 | entinostat 0.147 | vorinostat -0.011 | citarinostat 0.101 | silmitasertib -0.078 | [5] -0.062 | [6] -0.258

NPLOC4 isoform 2 (UniProt Q8TAT6)
inactive: [1] 0.02 | [2] -0.011 | [3] -0.067 | [4] -0.023 | entinostat -0.002 | vorinostat 0.008 | citarinostat 0.034 | silmitasertib -0.012 | [5] -0.041 | [6] -0.017

NIPSNAP1 (UniProt Q9BPW8)
inactive: [1] 0.055 | [2] -0.015 | [3] -0.02 | [4] -0.027 | entinostat -0.014 | vorinostat -0.061 | citarinostat 0.062 | silmitasertib -0.108 | [5] -0.045 | [6] 0.046

NF2 (UniProt P35240)
inactive: [1] -0.024 | [2] -0.033 | [3] 0.016 | [4] -0.07 | entinostat 0.058 | vorinostat 0.044 | citarinostat 0.007 | silmitasertib 0.05 | [5] -0.083 | [6] -0.025

NOP2 isoform 4 (UniProt P46087)
inactive: [1] 0.205 | [2] 0.241 | [3] 0.408 | [4] 0.3 | entinostat -0.163 | vorinostat 0.014 | citarinostat -0.04 | silmitasertib 0.288 | [5] 0.344 | [6] -0.095

NIF3L1 (UniProt Q9GZT8)
inactive: [1] -0.023 | [2] -0.007 | [3] 0.013 | [4] -0.002 | entinostat -0.009 | vorinostat -0.092 | citarinostat -0.031 | silmitasertib -0.003 | [5] -0.148 | [6] -0.037

NIBAN2 (UniProt Q96TA1)
inactive: [1] -0.038 | [2] 0.004 | [3] -0.047 | [4] -0.029 | entinostat 0 | vorinostat -0.002 | citarinostat 0.041 | silmitasertib -0.03 | [5] -0.049 | [6] -0.055

NSF (UniProt P46459)
inactive: [1] -0.071 | [2] -0.028 | [3] -0.138 | [4] -0.045 | entinostat 0.019 | vorinostat 0.03 | citarinostat 0.019 | silmitasertib -0.003 | [5] -0.009 | [6] -0.043

NEU1 (UniProt Q99519)
inactive: [1] -0.081 | [2] -0.088 | [3] -0.114 | [4] -0.057 | entinostat 0.003 | vorinostat 0.159 | citarinostat 0.087 | silmitasertib 0.04 | [5] -0.066 | [6] -0.063

NFKBIE (UniProt O00221)
inactive: [1] 0.051 | [2] 0.052 | [3] -0.043 | [4] -0.073 | entinostat 0.087 | vorinostat 0.035 | citarinostat 0.008 | silmitasertib -0.04 | [5] -0.066 | [6] -0.019

NRF1 isoform 4 (UniProt Q16656)
inactive: [1] 0.021 | [2] -0.088 | [3] -0.129 | [4] -0.037 | entinostat 0.056 | vorinostat 0.047 | citarinostat 0.039 | silmitasertib -0.02 | [5] -0.064 | [6] 0.04

NIT2 (UniProt Q9NQR4)
inactive: [1] -0.032 | [2] -0.03 | [3] -0.007 | [4] 0 | entinostat -0.009 | vorinostat 0.019 | citarinostat 0.01 | silmitasertib 0.002 | [5] -0.046 | [6] 0.003

NME6 (UniProt O75414)
inactive: [1] -0.039 | [2] -0.021 | [3] -0.033 | [4] -0.052 | entinostat 0.048 | vorinostat -0.141 | citarinostat -0.011 | silmitasertib -0.024 | [5] -0.149 | [6] -0.01

NFAT5 isoform 5 (UniProt O94916)
inactive: [1] -0.085 | [2] 0.299 | [3] -0.165 | [4] 0.072 | entinostat -0.029 | vorinostat -0.051 | citarinostat 0 | silmitasertib -0.045 | [5] 0.153 | [6] -0.078
